Values of other authors as cited in US5935597A, “Drug delivery devices and methods for treatment of viral and microbial infections and wasting syndromes” (Cryopreservation Technologies CC, priority 1995, dated 1999).
At least one compound was matched to its structure with a doubt left. Some compounds share one wording; it may come from a single statement.

Legend:
HIV = details: cited from earlier work
HIV-1 = details: AZT alone; cited from earlier work

## Cc1cn([C@H]2C[C@H](N=[N+]=[N-])[C@@H](CO)O2)c(=O)[nH]c1=O [AZT, azidothymidine]
HIV
  anti-HIV activity: active against HIV
HIV-1
  reduction in viral load: about 1 log

## O=c1[nH]cnc2c1ncn2[C@H]1CC[C@@H](CO)O1 [ddI, dideoxyinosine]
HIV
  anti-HIV activity: active against HIV
